Data as given in PubChem BioAssay AID485353 (National Center for Advancing Translational Sciences (NCATS), 2010).
About 610 (0.18%) of roughly 330,000 compounds were called active. Inconclusive means that the source gave no clear call. Such entries were picked first, then a sample of the others. Calls follow the shape of the full dose curve. Where the call is inconclusive, the potency comes from a doubtful curve fit.
Potency is read from the fitted curve at half-maximal effect.

Assay: qHTS of Yeast-based Assay for SARS-CoV PLP; also: nearly all actives have a fitted effect of over 55% in size
Details: S. cerevisiae expressing SARS-CoV PLpro; Potency: growth rescue; series mostly up to 32.9 µM
In the case of Cc1ccc(C(=O)COC(=O)CCc2ccc(S(=O)(=O)N3CCCCC3)cc2)cc1, the Potency is reported as inconclusive: 11.2 µM [activator, single point]. In the case of OC(c1ccccc1)c1cccnc1 (configuration not stated), the Potency is reported as inconclusive: 0.316 µM [activator, partial curve, poor fit]. In the case of c1ccc2c(c1)CCN2CCN1CCc2ccccc21, the Potency is reported as “inactive”. In the case of N#Cc1ccccc1NC(=O)c1cccc(COc2ccc(Cl)cc2Cl)c1, the Potency is reported as inconclusive: 3.55 µM [activator, full curve, poor fit]. For CC1=CC(C)(C)NC(=S)N1c1ccccc1, the Potency was inconclusive: 11.2 µM [activator, partial curve]. With Cc1ccc(Nc2ccc(S(=O)(=O)N3CCOCC3)cc2[N+](=O)[O-])cc1C the Potency was inconclusive: 11.2 µM [activator, partial curve]. For O=C(O)c1ccc2c(c1)ncn2C1CCCCC1, the Potency was inconclusive: 4.47 µM [activator, single point]. With CCOC(=O)CSc1nc2c(sc(=S)n2Cc2ccco2)c(=O)n1-c1ccccc1 the Potency was inconclusive: 4.47 µM [activator, single point]. With CCCOc1ccc(-c2c(C(=O)N/N=C/c3ccsc3)nnn2-c2nonc2N)cc1 the Potency was inconclusive: 20 µM [activator, partial curve]. With Cc1c(C)c2c(C)[nH]nc2oc1=O the Potency was inconclusive: 2.51 µM [activator, partial curve]. With CSc1ccc(Cn2nnc(C(=O)NCc3ccccc3)c2N)cc1 the Potency was “inactive”. With O=C1CSC(c2ccc(F)c(F)c2)N1c1ccccc1F (configuration not stated) the Potency was “inactive”. In the case of C/C(=N\Nc1ccccc1[N+](=O)[O-])c1ccccc1O, the Potency is reported as inconclusive: 1 µM [activator, full curve]. For CCN1CCN(C(=O)c2ccc(CS(=O)Cc3ccc(C)cc3)o2)CC1 (configuration not stated), the Potency was inconclusive: 17.8 µM [activator, single point]. With COc1ccc(NC(=O)C2CC(c3ccccc3O)=NO2)cc1OC (configuration not stated) the Potency was inconclusive: 20 µM [activator, single point]. With O=C(O)C1CCCC[C@H]1C(=O)Nc1ncc([N+](=O)[O-])s1 (some centres not stated) the Potency was “inactive”. For CC(C)C(=O)NC(c1cccs1)c1cc([N+](=O)[O-])c2cccnc2c1O (configuration not stated), the Potency was inconclusive: 3.98 µM [activator, single point]. With Fc1ccc(CNC(=S)NC2CCCC2)cc1 the Potency was inconclusive: 20 µM [activator, single point]. In the case of C=C(C)C1CC=C(C)/C(=N/NC(=S)Nc2ccccc2)C1 (configuration not stated), the Potency is reported as active: 10 µM. In the case of O=C(NCc1ccc(Cl)cc1)c1cc(-c2cccs2)on1, the Potency is reported as “inactive”. In the case of COc1ccc2nc(SCC(=O)N3CC(=O)Nc4ccccc43)c(C#N)cc2c1, the Potency is reported as inconclusive: 20 µM [activator, single point]. For O=C(c1cc2nc(-c3cccs3)cc(C(F)(F)Cl)n2n1)N1CCCc2ccccc21, the Potency was “inactive”. With CCN(CC)CCCC(C)NC1=NCCCCC1 (configuration not stated) the Potency was “inactive”. With O=C(NC(=S)Nn1cnnc1)c1ccccc1 the Potency was “inactive”. For COc1ccc(OC)c(C(c2nnnn2CC2CCCO2)N2CCN(C3CCCC3)CC2)c1 (configuration not stated), the Potency was active: 3.98 µM. With CCCCN(CCCC)C(=O)C[n+]1cccc(/C=N/O)c1 the Potency was “inactive”. For CCN(C(=O)CSc1nnc(-c2ccccc2)o1)c1c(N)n(Cc2ccccc2)c(=O)[nH]c1=O, the Potency was inconclusive: 20 µM [activator, single point]. With CCN(CC)CCN1C(=O)C(=O)/C(=C(/O)c2ccncc2)C1c1ccccc1F (configuration not stated) the Potency was inconclusive: 3.98 µM [activator, single point]. In the case of C/C(CC(=O)NC(C)(C)C)=N\NC(=O)c1ccco1, the Potency is reported as inconclusive: 4.47 µM [activator, single point]. For Cc1ccc(-c2cccc(-c3cc(=O)oc4ccc(C(C)(C)C)cc34)c2)cc1, the Potency was “inactive”. With COc1ccc(OC)c(S(=O)(=O)Nc2cccc(-c3ccc(N4CCCCCC4)nn3)c2)c1 the Potency was “inactive”. In the case of CC(=O)c1ccc(S(=O)(=O)NCC(=O)N2CCN(C/C=C/c3ccccc3)CC2)cc1, the Potency is reported as “inactive”. For C=CCn1c(SCCC(=O)O)nc2c1c(=O)n(C)c(=O)n2C, the Potency was inconclusive: 20 µM [activator, single point]. In the case of CC(C)Oc1cccc(C(=O)NC(=S)Nc2cccnc2)c1, the Potency is reported as inconclusive: 20 µM [activator, single point]. For CCOC(=O)Cc1csc(/N=C/c2c(O)n(-c3ccc(C)c(C)c3)c(=O)c3ccccc23)n1, the Potency was inconclusive: 10 µM [activator, single point]. For CCOC(=O)CSc1n[nH]c(-c2cccnc2)n1, the Potency was inconclusive: 3.98 µM [activator, single point]. In the case of NC(=S)Nc1cccc2cccnc12, the Potency is reported as inconclusive: 4.47 µM [activator, single point]. With CCN(CC)c1ccc(/C=N/NC(=O)c2c(Cl)cnn2C)c(O)c1 the Potency was inconclusive: 3.98 µM [activator, single point]. With C=CCNc1oc(-c2cccc(F)c2)nc1C#N the Potency was inconclusive: 11.2 µM [activator, single point]. For O=c1cc(CO)occ1OCc1cccc(F)c1, the Potency was “inactive”. For CN(C)S(=O)(=O)c1ccc2c(c1)C(=NO)c1cc(S(=O)(=O)N(C)C)ccc1-2, the Potency was “inactive”. For Cc1ccccc1S(=O)(=O)Cc1ccc(C(=O)NCCCN2CCN(C)CC2)o1, the Potency was inconclusive: 3.16 µM [activator, partial curve]. With COc1ccc(C(=O)Nc2nnc(S(=O)(=O)N3CCC(C)CC3)s2)cc1OC the Potency was inconclusive: 11.2 µM [activator, single point]. For COC(=O)C1(CCSC)NC(c2ccc(OC)cc2OC)C2C(=O)N(c3cccc(C(C)=O)c3)C(=O)C21 (configuration not stated), the Potency was inconclusive: 2.24 µM [activator, full curve]. For CCc1cccc(CC)c1-n1c(SCC(=O)N2CCCc3ccccc32)nc(O)cc1=O, the Potency was “inactive”. With CCn1c(COc2cccc(OC)c2)nnc1SCC(=O)NC1CCCC1 the Potency was inconclusive: 12.6 µM [activator, partial curve]. For Cc1ccc(Cn2c(SCc3cccnc3)nc3c2c(=O)n(C)c(=O)n3C)cc1, the Potency was “inactive”.
